The whole screen tested about 290,000 compounds, of which about 110 (0.038%) were called active. The shares of active, inactive and inconclusive entries below differ from those in the screen. Calls come from the whole dose curve; as a rule, active = well fitted inhibition curve with a large enough effect in the polarisation, with a control signal flat (not every such curve was filed as active); inconclusive = small, poorly fitted or top-dose-only effect, or effect the other way, or a change in a side signal; inactive = no such curve, though single readings can be large or run the other way; the % refers to the polarisation. Where the call is inconclusive, the potency comes from a doubtful curve fit. “Side channel” marks fits to a control or component signal instead of the main read-out.
Target: Histone-lysine N-methyltransferase 2A (Homo sapiens) (UniProt Q03164)
Test: qHTS Fluorescence Polarization Assay for Inhibitors of MLL CXXC domain - DNA interaction
Settings: MLL-CXXC / FITC-HOXA9 DNA fluorescence polarization; activity change, negative = inhibition: at 115 µM (top of the series)
Summary of the method: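 Steps: dispense CXXC domain solution (7 uM) → pin compounds or unlabeled HOX-A9 DNA control → 5 min ambient → add FLSN-HOX-A9 solution (50 nM) → spin → 30 min ambient → fluorescence polarization. Tris pH 7.5/NaCl/DTT/BSA buffer.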
Potency is the fitted concentration of half-maximal effect.

Chains of the proteins cited; added tags and fusions are not shown.
UniProt Q03164, whole entry, looked up: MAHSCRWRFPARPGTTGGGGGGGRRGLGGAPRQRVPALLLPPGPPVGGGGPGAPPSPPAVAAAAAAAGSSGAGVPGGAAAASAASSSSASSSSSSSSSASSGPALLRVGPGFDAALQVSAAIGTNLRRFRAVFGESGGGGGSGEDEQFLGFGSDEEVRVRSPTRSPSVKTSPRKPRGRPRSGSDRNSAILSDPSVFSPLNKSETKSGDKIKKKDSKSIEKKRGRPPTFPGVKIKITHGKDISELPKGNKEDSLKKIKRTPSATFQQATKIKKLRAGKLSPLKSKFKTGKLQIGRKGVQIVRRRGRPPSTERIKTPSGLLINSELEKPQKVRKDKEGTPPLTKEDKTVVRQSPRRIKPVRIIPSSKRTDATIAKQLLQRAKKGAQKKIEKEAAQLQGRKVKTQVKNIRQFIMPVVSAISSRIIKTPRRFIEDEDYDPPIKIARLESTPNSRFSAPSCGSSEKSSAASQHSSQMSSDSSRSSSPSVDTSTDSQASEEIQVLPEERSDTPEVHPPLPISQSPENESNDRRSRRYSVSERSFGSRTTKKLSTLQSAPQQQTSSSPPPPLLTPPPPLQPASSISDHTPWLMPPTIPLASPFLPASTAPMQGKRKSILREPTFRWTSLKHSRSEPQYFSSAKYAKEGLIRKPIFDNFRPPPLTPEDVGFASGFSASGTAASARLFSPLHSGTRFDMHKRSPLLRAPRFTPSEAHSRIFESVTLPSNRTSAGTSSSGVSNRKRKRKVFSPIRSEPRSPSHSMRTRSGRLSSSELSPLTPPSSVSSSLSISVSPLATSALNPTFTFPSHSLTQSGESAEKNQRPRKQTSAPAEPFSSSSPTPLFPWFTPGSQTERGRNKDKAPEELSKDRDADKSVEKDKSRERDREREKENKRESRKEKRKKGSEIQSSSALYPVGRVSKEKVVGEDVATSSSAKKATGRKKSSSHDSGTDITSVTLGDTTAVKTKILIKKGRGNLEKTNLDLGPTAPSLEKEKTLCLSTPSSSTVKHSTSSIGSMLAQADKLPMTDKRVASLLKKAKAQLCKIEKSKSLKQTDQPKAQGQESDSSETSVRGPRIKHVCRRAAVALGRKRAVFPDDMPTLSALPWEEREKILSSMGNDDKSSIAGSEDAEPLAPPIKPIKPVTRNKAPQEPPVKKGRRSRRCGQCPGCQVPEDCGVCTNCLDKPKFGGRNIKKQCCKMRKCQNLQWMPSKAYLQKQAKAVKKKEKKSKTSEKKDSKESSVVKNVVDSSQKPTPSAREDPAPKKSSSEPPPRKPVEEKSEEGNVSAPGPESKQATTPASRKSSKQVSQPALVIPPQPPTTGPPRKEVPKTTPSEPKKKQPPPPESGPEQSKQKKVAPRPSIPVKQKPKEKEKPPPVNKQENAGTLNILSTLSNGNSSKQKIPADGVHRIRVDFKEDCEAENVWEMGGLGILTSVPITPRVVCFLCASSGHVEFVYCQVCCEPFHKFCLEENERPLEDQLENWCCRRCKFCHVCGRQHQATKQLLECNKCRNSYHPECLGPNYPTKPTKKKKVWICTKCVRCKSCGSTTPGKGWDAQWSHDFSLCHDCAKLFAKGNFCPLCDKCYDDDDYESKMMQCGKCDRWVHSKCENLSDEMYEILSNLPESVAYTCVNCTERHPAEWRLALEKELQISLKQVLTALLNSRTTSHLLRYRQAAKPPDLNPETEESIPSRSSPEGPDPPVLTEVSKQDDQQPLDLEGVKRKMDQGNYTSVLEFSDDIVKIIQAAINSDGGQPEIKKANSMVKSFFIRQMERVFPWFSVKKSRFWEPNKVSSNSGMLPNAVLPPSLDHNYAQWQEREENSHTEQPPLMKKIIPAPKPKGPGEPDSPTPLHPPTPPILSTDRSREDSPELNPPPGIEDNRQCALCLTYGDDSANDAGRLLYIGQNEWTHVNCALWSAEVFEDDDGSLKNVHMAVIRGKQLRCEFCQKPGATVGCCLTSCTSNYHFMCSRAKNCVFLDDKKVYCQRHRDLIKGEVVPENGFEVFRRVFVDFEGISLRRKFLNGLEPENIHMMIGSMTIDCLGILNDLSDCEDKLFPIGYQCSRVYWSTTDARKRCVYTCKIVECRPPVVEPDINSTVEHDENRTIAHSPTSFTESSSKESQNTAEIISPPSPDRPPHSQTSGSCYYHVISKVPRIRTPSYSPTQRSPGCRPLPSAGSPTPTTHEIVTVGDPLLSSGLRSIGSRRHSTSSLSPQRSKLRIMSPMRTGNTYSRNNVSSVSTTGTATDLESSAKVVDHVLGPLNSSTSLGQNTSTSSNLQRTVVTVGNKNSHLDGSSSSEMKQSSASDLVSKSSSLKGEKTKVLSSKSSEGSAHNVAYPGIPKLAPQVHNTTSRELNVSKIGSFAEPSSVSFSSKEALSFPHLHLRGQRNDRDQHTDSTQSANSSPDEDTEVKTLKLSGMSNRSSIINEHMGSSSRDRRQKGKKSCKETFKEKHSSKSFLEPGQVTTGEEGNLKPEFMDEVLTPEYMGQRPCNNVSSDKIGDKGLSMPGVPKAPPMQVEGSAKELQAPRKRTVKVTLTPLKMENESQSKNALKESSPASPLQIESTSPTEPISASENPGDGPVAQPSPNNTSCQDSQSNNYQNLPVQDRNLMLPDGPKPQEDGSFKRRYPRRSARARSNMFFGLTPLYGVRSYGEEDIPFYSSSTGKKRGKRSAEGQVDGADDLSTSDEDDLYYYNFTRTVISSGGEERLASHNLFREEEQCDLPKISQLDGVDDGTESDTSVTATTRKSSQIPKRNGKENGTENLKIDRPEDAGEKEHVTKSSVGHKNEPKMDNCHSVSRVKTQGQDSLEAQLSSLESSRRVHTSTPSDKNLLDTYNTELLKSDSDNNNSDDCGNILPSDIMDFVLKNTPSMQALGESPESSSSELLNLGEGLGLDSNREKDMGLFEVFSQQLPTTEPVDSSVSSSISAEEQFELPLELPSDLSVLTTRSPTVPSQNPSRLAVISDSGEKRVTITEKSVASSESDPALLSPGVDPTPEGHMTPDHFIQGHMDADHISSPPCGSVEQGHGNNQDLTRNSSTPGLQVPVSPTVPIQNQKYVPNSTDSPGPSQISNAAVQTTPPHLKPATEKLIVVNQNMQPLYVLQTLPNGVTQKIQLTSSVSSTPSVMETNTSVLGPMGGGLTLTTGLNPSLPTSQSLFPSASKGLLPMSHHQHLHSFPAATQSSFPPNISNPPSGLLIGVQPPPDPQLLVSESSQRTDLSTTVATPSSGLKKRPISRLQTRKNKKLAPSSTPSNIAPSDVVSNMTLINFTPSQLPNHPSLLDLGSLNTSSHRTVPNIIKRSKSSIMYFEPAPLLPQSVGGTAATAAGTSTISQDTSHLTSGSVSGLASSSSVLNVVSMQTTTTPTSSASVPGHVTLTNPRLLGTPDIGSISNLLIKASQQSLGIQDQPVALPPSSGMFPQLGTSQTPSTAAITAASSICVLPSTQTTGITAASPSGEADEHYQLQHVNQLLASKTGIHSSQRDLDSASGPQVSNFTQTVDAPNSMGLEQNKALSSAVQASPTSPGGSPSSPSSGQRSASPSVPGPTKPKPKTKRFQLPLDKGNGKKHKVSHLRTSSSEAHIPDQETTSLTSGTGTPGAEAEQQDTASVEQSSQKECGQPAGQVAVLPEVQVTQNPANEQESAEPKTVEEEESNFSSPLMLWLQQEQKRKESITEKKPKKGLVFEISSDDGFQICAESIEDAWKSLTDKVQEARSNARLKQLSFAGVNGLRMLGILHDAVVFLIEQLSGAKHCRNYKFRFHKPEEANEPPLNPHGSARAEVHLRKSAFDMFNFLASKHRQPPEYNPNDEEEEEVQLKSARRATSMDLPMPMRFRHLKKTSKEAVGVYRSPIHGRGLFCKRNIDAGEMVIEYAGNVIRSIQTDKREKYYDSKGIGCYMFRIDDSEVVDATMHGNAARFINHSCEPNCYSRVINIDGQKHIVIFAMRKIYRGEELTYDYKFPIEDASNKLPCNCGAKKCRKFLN

| SMILES | Potency | activity change, negative = inhibition |
| --- | --- | --- |
| COc1ccc(S(=O)(=O)N2CCOCC2)cc1NC(=O)c1ccccc1-c1ccc(C(F)(F)F)cc1 | inconclusive: 20 µM [fluorescent, side channel, partial curve, poor fit] |  |
| CCCOc1ccc(-c2nn(-c3ccccc3)cc2/C=C2\SC(=S)N(C3CCS(=O)(=O)C3)C2=O)cc1 (stereo unspecified) | inconclusive: 31.6 µM [fluorescent, side channel, single point] |  |
| COc1ccc(C2NC(=O)C(C#N)=C(S)N2c2ccc(C)cc2)cc1OC (stereo unspecified) | inconclusive: 28.2 µM [inhibitor, partial curve] |  |
| CSc1ccccc1OCc1cc(C(=O)N2C[C@H]3CC[C@H]2C3)no1 | inactive |  |
| N#Cc1cc2c(nc1SCc1ccccc1)CCCCC2 | inconclusive: 8.91 µM [quencher, side channel, single point] |  |
| O=C(c1ccccc1)c1ccccn1 | inconclusive: 50.1 µM [fluorescent, side channel, single point] |  |
| Cc1cc2cc(CNC(=O)Nc3ccc(Cl)c(Cl)c3)ccc2n1C | inactive |  |
| CN1C(=O)/C(=C/c2cccc(Cl)c2)Sc2ccc(C(=O)NCc3cccnc3)cc21 | inactive |  |
| C=CCNc1cnn(-c2ccc(C)cc2)c(=O)c1Sc1ccc(C)cc1 | inconclusive: 14.1 µM [inhibitor, single point] |  |
| CCOc1ccc(N/C(=C(/C(Cl)=C(Cl)Cl)[N+](=O)[O-])n2cncn2)cc1 | inconclusive: 89.1 µM [inhibitor, single point] |  |
| COC(=O)c1ccccc1NCc1cc(=O)oc2cc(O)c(O)cc12 | inconclusive: 35.5 µM [inhibitor, single point] |  |
| Cc1cccc(NC(=S)NCCO)c1C | inconclusive: 7.08 µM [fluorescent, side channel, partial curve] |  |
| CC(=O)NN1C(=O)/C(=C\c2ccc(Br)o2)SC1=S | inconclusive: 10 µM [fluorescent, side channel, single point] |  |
| O=Cc1c(Sc2ccccn2)nc2ccccn2c1=O | inconclusive: 31.6 µM [quencher, side channel, single point] |  |
| O=C(O)c1cccc(NC(=O)c2cn(-c3ccccc3)nc2-c2cccc(Br)c2)c1 | inconclusive: 15.8 µM [inhibitor, full curve, poor fit] |  |
| CN(C)CCCNc1ncnc2oc(-c3ccccc3)c(-c3ccccc3)c12 | inconclusive: 12.6 µM [quencher, side channel, single point] |  |
| Brc1csc(/C=N/Nc2nc3ccccc3s2)c1 | inconclusive: 44.7 µM [fluorescent, side channel, single point] |  |
| Cc1cc(C)cc(OCc2ccc(C(=O)NC3CCOC3=O)o2)c1 (stereo unspecified) | inconclusive: 14.1 µM [fluorescent, side channel, full curve] |  |
| Cc1ccc(CN2CCSCC2)cc1 | inactive |  |
| Cc1cccc(-n2c(N)cc(=O)nc2SCC(=O)Nc2ccccc2)c1 | inactive |  |
| Fc1ccccc1N1CCN(CC2CC3C=CC2C3)CC1 (stereo unspecified) | inactive |  |

| SMILES | Potency | activity change, negative = inhibition |
| --- | --- | --- |
| CCN(CC)C(=O)CN(c1ccc2c(c1)OCO2)S(C)(=O)=O | inconclusive: 63.1 µM [fluorescent, side channel, single point] |  |
| CCOC(=O)c1c(C)oc2c1c(C=NCCO)c(O)c1ccccc12 | inconclusive: 44.7 µM [fluorescent, side channel, partial curve] |  |
| O=C(O)Cc1sc(-c2ccccc2)nc1-c1ccccc1 | inactive |  |
| CC(C)OC(=O)c1nn2c(C(F)(F)F)cc(-c3ccc(Br)o3)nc2c1Br | inconclusive: 89.1 µM [fluorescent, side channel, single point] |  |
| COc1cc2c(cc1OC)C1O[C@](c3ccsc3)(C2)Oc2cc(-c3ccccc3)oc(=O)c21 |  | inactive: -1.16% [at 23 µM] |
| CN(C)c1ccc(/C=N/NC(=O)c2ccccc2O)o1 | inconclusive: 12.6 µM [fluorescent, partial curve] |  |
| CC(C)c1ccc(OCC(=O)NC2CCCC2)cc1 | inconclusive: 63.1 µM [quencher, side channel, single point] |  |
| CN(Cc1ccco1)S(=O)(=O)c1csc(C(N)=O)c1 | inconclusive: 14.1 µM [quencher, side channel, single point] |  |
| CN(C)c1ccc(C(=C2C=CC(=[N+](C)C)C=C2)c2c(O)c(S(=O)(=O)[O-])cc3cc(S(=O)(=O)O)ccc23)cc1 | inconclusive: 35.5 µM [inhibitor, full curve] |  |
| CCOc1ccc2nc(C(=O)N3CCCC(C)C3)sc2c1 (stereo unspecified) | inconclusive: 1.12 µM [fluorescent, side channel, full curve] |  |
| CC1CCCCN1CCNC(=O)c1ccc2c(=O)n(CCc3ccccc3)c(=O)[nH]c2c1 (stereo unspecified) | inconclusive: 1.41 µM [quencher, side channel, full curve, poor fit] |  |
| COc1ccccc1N(C(=O)c1ccco1)C(C(=O)NC1CCCC1)c1cccs1 (stereo unspecified) | inconclusive: 70.8 µM [fluorescent, side channel, single point] |  |
| COc1ccc(-c2cc(-c3ccccc3)nc(SC(C)C(=O)O)c2C#N)cc1 (stereo unspecified) | inconclusive: 12.6 µM [inhibitor, partial curve] |  |
| N#Cc1c(N)nc2c(c1N)CC(CCl)O2 (stereo unspecified) | inconclusive: 25.1 µM [fluorescent, side channel, partial curve, poor fit] |  |
| CCN1C(=S)SC(=O)C1=C1C=C(C)OC(C)=C1 | inconclusive: 35.5 µM [fluorescent, side channel, partial curve] |  |
| CC(C)N(C(=O)Cn1c(SCC(=O)NCc2ccc3c(c2)OCO3)nc2ccccc21)C(C)C | inactive |  |
| CN(C)CCNC(=O)c1cc2c(s1)-c1ccc(Cl)cc1SC2 | inactive |  |
| Nc1cc(C(=O)c2ccccc2)ccc1N1CCOCC1 | inactive |  |
| CC(=O)c1ccc(N2CCN(C(=O)c3ccc4c(c3)OCO4)CC2)cc1 | inconclusive: 14.1 µM [quencher, side channel, single point] |  |
| CN(Cc1cnn(-c2ccc(F)cc2)c1)Cc1nc(Cc2ccccc2)no1 | inconclusive: 15.8 µM [inhibitor, single point] |  |
| c1cnc2ccc3ncccc3c2c1 | inactive |  |

| SMILES | Potency | activity change, negative = inhibition |
| --- | --- | --- |
| COc1ccc(C(C(=O)NC2CCCCC2)N(C(=O)c2snc(C(N)=O)c2N)c2ccc(OC)cc2OC)cc1 (stereo unspecified) | inactive |  |
| COc1ccc2[nH]c3c(c2c1)CCN1C(=O)N([C@@H](C)C(=O)NC2CCN(Cc4ccccc4)CC2)C(=O)[C@]31C | inconclusive: 35.5 µM [quencher, side channel, partial curve] |  |
| Cc1ccc(NS(=O)(=O)c2ccc(NC(=O)C3CCCO3)cc2)cc1 (stereo unspecified) | inactive |  |
| c1ccc(CNc2nc(NCc3ccccc3)c3ccccc3n2)cc1 | inconclusive: 35.5 µM [quencher, side channel, single point] |  |
| CC(C)CC(=O)OC1C(N2CCOCC2)c2c(ccc(/C=C/C(=O)N3CCOCC3)c2O)OC1(C)C (stereo unspecified) | inactive |  |
| COc1ccc(NC(=O)Nc2ccc(OCc3ccccc3)cc2)cn1 | inconclusive: 31.6 µM [fluorescent, side channel, partial curve] |  |
| Cc1c2cnn(CC(=O)Nc3c(F)c(F)cc(F)c3F)c(=O)c2c(C)n1Cc1ccccc1F | inactive |  |
| COc1ccc(NS(=O)(=O)c2ccc3nc(COc4ccc5ccccc5c4)[nH]c3c2)cc1 | inconclusive: 7.94 µM [fluorescent, side channel, full curve] |  |
| N#CC1=C(N)OC2=C(C(=O)CCC2)C1C1C=CCCC1 (stereo unspecified) | inactive |  |
| O=C(N/N=C\c1c(O)ccc2ccccc12)c1cncc(Br)c1 | inconclusive: 22.4 µM [fluorescent, side channel, partial curve] |  |
| Cc1ccc(C)c(S(=O)(=O)Nc2ccc(C(=O)NCC(c3ccco3)N3CCCCC3)cc2)c1 (stereo unspecified) | inconclusive: 56.2 µM [fluorescent, side channel, single point] |  |
| CCOc1ccc(C2C(C#N)=C(N)N3C(=C2C#N)Sc2ccccc23)cc1 (stereo unspecified) | inconclusive: 89.1 µM [inhibitor, single point] |  |
| O=C(OCC1OC(OC(=O)c2cc(O)c(O)c(OC(=O)c3cc(O)c(O)c(O)c3)c2)[C@@H](OC(=O)c2cc(O)c(O)c(OC(=O)c3cc(O)c(O)c(O)c3)c2)C(OC(=O)c2cc(O)c(O)c(OC(=O)c3cc(O)c(O)c(O)c3)c2)C1OC(=O)c1cc(O)c(O)c(OC(=O)c2cc(O)c(O)c(O)c2)c1)c1cc(O)c(O)c(OC(=O)c2cc(O)c(O)c(O)c2)c1 (stereo partly specified) | active: 63.1 µM |  |
| CCN(CCn1cccn1)C(=O)c1cc(COc2c(F)cccc2F)on1 | inconclusive: 63.1 µM [inhibitor, single point] |  |
| CSc1ccc(CN2CCC(C(=O)NCc3ccc(C)cc3)CC2)cc1 | inactive |  |
| O=C(NN=c1c(=O)c2ccccc2c1=O)c1ccccc1 | inconclusive: 31.6 µM [inhibitor, single point] |  |
| Cc1cc(OC(=O)c2ccccc2Br)cc(=O)n1C | inconclusive: 22.4 µM [fluorescent, partial curve] |  |
| Oc1[nH]c(=S)sc1/C=C1\C(c2ccccc2)=Nc2ccccc21 | inconclusive: 20 µM [fluorescent, side channel, partial curve] |  |
| O=C(COC(=O)c1nc(Cl)ccc1Cl)Nc1ccc2c(c1)OCO2 | inconclusive: 89.1 µM [quencher, side channel, single point] |  |

4 of the compounds above, with bars between the fields:
SMILES | Potency | activity change, negative = inhibition
CSc1ccccc1OCc1cc(C(=O)N2C[C@H]3CC[C@H]2C3)no1 | inactive | 
CCOc1ccc(N/C(=C(/C(Cl)=C(Cl)Cl)[N+](=O)[O-])n2cncn2)cc1 | inconclusive: 89.1 µM [inhibitor, single point] | 
O=C(O)c1cccc(NC(=O)c2cn(-c3ccccc3)nc2-c2cccc(Br)c2)c1 | inconclusive: 15.8 µM [inhibitor, full curve, poor fit] | 
CCN(CCn1cccn1)C(=O)c1cc(COc2c(F)cccc2F)on1 | inconclusive: 63.1 µM [inhibitor, single point] | 
